# Results taken from PubChem BioAssay AID250 (DTP/NCI, 2004).
# The list shows only some results of the screen, not a fair sample: it is rich in T/C values a quarter to a half above the control, in often repeated tests (any T/C) and in doses without a T/C. Further doses and runs are listed elsewhere. T/C gives the treated animals as a percentage of the vehicle group. Some entries give survivors of the animals treated and no T/C: the source holds a T/C of zero for them, seemingly a mark for toxic or unscored doses. Some doses without a T/C left all or most animals alive at the check, yet need not have been tolerated: the source hardly ever lists a survival T/C far under the control, and the zero likely stands for such cases as well. For some assays here: Survivors were counted at the toxicity check, usually on the fifth day, unless a day is given; later deaths do not show. Schedule codes are those of the source, read here as Q, the interval in days (D) or hours (H), X, the number of doses. Some schedules carry Z or #; the key to these is not given. Some molecules as drawn cover several salts, stereoisomers or complexes of the source; a dose is that of the sample tested. Some entries hold several experiments; their values stand side by side, smallest first. For some assays here: Where survival is the endpoint, this PubChem deposit counts one and a half times the control or more as active, and values a quarter to a half above the control carry no call in these data; other NCI protocols may use other cut-offs. Additions like (4×) stand for listed records that agree. Some T/C values carry the count of animals alive at the toxicity check (mostly the fifth day); without a count, all were alive then.
# Legend:
# [1] = tested on: BDF1 mice, L1210 leukemia sc, survival T/C; experiment: NCI In Vivo Anticancer Drug Screen. Data for tumor model L1210 Leukemia (subcutaneous) in B6D2F1 (BDF1) mice; conditions: higher T/C = longer survival
# Procedure, shortened: (§1)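 Mice carrying transplanted tumors received test compounds, and survival or tumor size was measured. Values are the treated-group measurement (T) divided by that of the vehicle-treated control group (C).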
# [2] = tested on: BDF1 mice, L1210 leukemia sc; experiment: as above; conditions: higher T/C = longer survival
# Procedure, shortened: as §1
# [3] = T/C endpoint: median survival time, dose: 3.0 mg/kg/injection, schedule: Q01DX Z (sc), vehicle: saline
# [4] = T/C endpoint: median survival time, dose: 14.0 mg/kg/injection, schedule: Q01DX Z (sc), vehicle: saline
# [5] = T/C endpoint: median survival time, dose: 23.0 mg/kg/injection, schedule: Q01DX Z (sc), vehicle: saline
structure (smiles),measurement,setting,value
S=P(N1CC1)(N1CC1)N1CC1,survivor count,"[1]; T/C endpoint: median survival time, dose: 12.0 mg/kg/injection, schedule: Q01DX009 (ip), vehicle: water",8 of 10
same,survivor count,"[1]; T/C endpoint: median survival time, dose: 24.0 mg/kg/injection, schedule: Q01DX009 (ip), vehicle: water",6 of 10
same,survivor count,"[1]; T/C endpoint: median survival time, dose: 24.0 mg/kg/injection, schedule: Q01DX009 (sc), vehicle: water",6 of 10
same,T/C,"[2]; T/C endpoint: median survival time, dose: 3.0 mg/kg/injection, schedule: Q01DX009 (ip), vehicle: water",127 % of control [9 of 10 alive]
same,T/C,"[2]; T/C endpoint: median survival time, dose: 3.0 mg/kg/injection, schedule: Q01DX009 (sc), vehicle: water",145 % of control
same,T/C,[2]; [3],145 % of control
same,T/C,"[2]; T/C endpoint: median survival time, dose: 5.0 mg/kg/injection, schedule: Q01DX Z (sc), vehicle: saline",140 % of control
same,T/C,"[2]; T/C endpoint: median survival time, dose: 8.4 mg/kg/injection, schedule: Q01DX Z (sc), vehicle: saline",144 % of control
same,T/C,[2]; [4],135 % of control
CC(=O)NC(CCC(=O)C=[N+]=N)C(=O)O (stereo unspecified),survivor count,"[1]; T/C endpoint: median survival time, dose: 0.19 mg/kg/injection, schedule: Q01DX Z (sc), vehicle: water",5 of 10
same,T/C,"[2]; T/C endpoint: median survival time, dose: 0.31 mg/kg/injection, schedule: Q01DX Z (sc), vehicle: water",136 % of control
same,T/C,"[2]; T/C endpoint: median survival time, dose: 0.47 mg/kg/injection, schedule: Q01DX Z (sc), vehicle: water",140 % of control
same,T/C,"[2]; T/C endpoint: median survival time, dose: 0.52 mg/kg/injection, schedule: Q01DX Z (sc), vehicle: water",140 % of control
same,T/C,"[2]; T/C endpoint: median survival time, dose: 0.52 mg/kg/injection, schedule: Q#A X Z (sc), vehicle: water",131 % of control [9 of 10 alive]
same,T/C,"[2]; T/C endpoint: median survival time, dose: 0.67 mg/kg/injection, schedule: Q01DX Z (sc), vehicle: water",145 % of control
same,T/C,"[2]; T/C endpoint: median survival time, dose: 0.78 mg/kg/injection, schedule: Q01DX Z (sc), vehicle: water",130 % of control
same,T/C,"[2]; T/C endpoint: median survival time, dose: 0.86 mg/kg/injection, schedule: Q01DX Z (sc), vehicle: water",136 and 145 % of control
same,T/C,"[2]; T/C endpoint: median survival time, dose: 0.86 mg/kg/injection, schedule: Q#A X Z (sc), vehicle: water",131 % of control [9 of 10 alive]
same,T/C,"[2]; T/C endpoint: median survival time, dose: 1.12 mg/kg/injection, schedule: Q01DX Z (sc), vehicle: water",133 % of control
same,T/C,"[2]; T/C endpoint: median survival time, dose: 1.3 mg/kg/injection, schedule: Q01DX Z (sc), vehicle: water",145 % of control
same,T/C,"[2]; T/C endpoint: median survival time, dose: 1.44 mg/kg/injection, schedule: Q01DX Z (sc), vehicle: water",131 and 136 % of control
same,T/C,"[2]; T/C endpoint: median survival time, dose: 1.87 mg/kg/injection, schedule: Q01DX Z (sc), vehicle: water",125 % of control
same,T/C,"[2]; T/C endpoint: median survival time, dose: 2.4 mg/kg/injection, schedule: Q01DX Z (sc), vehicle: water","127, 136, 140 % of control [8 of 10 alive]"
same,T/C,"[2]; T/C endpoint: median survival time, dose: 2.4 mg/kg/injection, schedule: Q02DX Z (sc), vehicle: water",127 % of control
same,T/C,"[2]; T/C endpoint: median survival time, dose: 3.6 mg/kg/injection, schedule: Q01DX Z (sc), vehicle: water",130 % of control
same,T/C,"[2]; T/C endpoint: median survival time, dose: 6.0 mg/kg/injection, schedule: Q01DX Z (sc), vehicle: water",130 % of control
same,T/C,"[2]; T/C endpoint: median survival time, dose: 130.0 mg/kg/injection, schedule: Q01DX001 (sc), vehicle: water",125 % of control
same,T/C,"[2]; T/C endpoint: median survival time, dose: 130.0 mg/kg/injection, schedule: Q## X Z (sc), vehicle: water",125 and 140 % of control
same,T/C,"[2]; T/C endpoint: median survival time, dose: 216.0 mg/kg/injection, schedule: Q01DX001 (sc), vehicle: water",125 and 130 % of control
same,T/C,"[2]; T/C endpoint: median survival time, dose: 216.0 mg/kg/injection, schedule: Q07DX Z (sc), vehicle: water",130 % of control
same,T/C,"[2]; T/C endpoint: median survival time, dose: 360.0 mg/kg/injection, schedule: Q01DX001 (sc), vehicle: water",130 % of control (2×)
same,T/C,"[2]; T/C endpoint: median survival time, dose: 360.0 mg/kg/injection, schedule: Q## X Z (sc), vehicle: water",135 % of control
same,T/C,"[2]; T/C endpoint: median survival time, dose: 600.0 mg/kg/injection, schedule: Q01DX001 (sc), vehicle: water",130 % of control
same,T/C,"[2]; T/C endpoint: median survival time, dose: 600.0 mg/kg/injection, schedule: Q07DX Z (sc), vehicle: water",125 % of control
COc1ccc2c(Nc3ccc(NS(C)(=O)=O)cc3)c3ccccc3nc2c1,survivor count,"[1]; T/C endpoint: mean survival time, dose: 50.0 mg/kg/injection, schedule: Q01DX009 (sc), vehicle: saline",10 of 10
same,T/C,"[2]; T/C endpoint: mean survival time, dose: 12.5 mg/kg/injection, schedule: Q01DX009 (sc), vehicle: saline",125 % of control
same,T/C,"[2]; T/C endpoint: mean survival time, dose: 25.0 mg/kg/injection, schedule: Q01DX009 (sc), vehicle: saline",144 % of control
CC(=O)OCC(=O)[C@@]1(O)CC[C@H]2[C@@H]3CCC4=CC(=O)CC[C@]4(C)[C@@]3(F)[C@@H](O)C[C@@]21C,survivor count,"[1]; T/C endpoint: median survival time, dose: 108.0 mg/kg/injection, schedule: Q01DX Z (sc), vehicle: methylcellulose (MC)",2 of 10
same,survivor count,"[1]; T/C endpoint: median survival time, dose: 180.0 mg/kg/injection, schedule: Q01DX Z (sc), vehicle: methylcellulose (MC)",2 of 10
same,survivor count,"[1]; T/C endpoint: median survival time, dose: 300.0 mg/kg/injection, schedule: Q01DX Z (sc), vehicle: methylcellulose (MC)",4 of 10
same,survivor count,"[1]; T/C endpoint: median survival time, dose: 500.0 mg/kg/injection, schedule: Q01DX Z (sc), vehicle: methylcellulose (MC)",5 of 10
same,T/C,"[2]; T/C endpoint: median survival time, dose: 833.0 mg/kg/injection, schedule: Q01DX Z (sc), vehicle: methylcellulose (MC)",125 % of control
COc1cc([C@@H]2c3cc4c(cc3[C@@H](OC3OC5COC(C)OC5C(O)C3O)[C@H]3COC(=O)[C@H]23)OCO4)cc(OC)c1O (stereo partly specified),survivor count,"[1]; T/C endpoint: median survival time, dose: 32.0 mg/kg/injection, schedule: Q01DX009 (ip), vehicle: Klucel (hydroxypropylcellulose) (HPC)",8 of 8
same,T/C,"[2]; T/C endpoint: median survival time, dose: 4.0 mg/kg/injection, schedule: Q01DX009 (ip), vehicle: Klucel (hydroxypropylcellulose) (HPC)",140 % of control
Cc1c(CNc2ccc(C(=O)NC(CC(=O)O)C(=O)O)cc2)ccc2nc(N)nc(N)c12 (stereo unspecified),survivor count,"[1]; T/C endpoint: median survival time, dose: 39.0 mg/kg/injection, schedule: Q01DX017 (sc), vehicle: sodium bicarbonate",8 of 8
same,survivor count,"[1]; T/C endpoint: median survival time, dose: 65.0 mg/kg/injection, schedule: Q01DX017 (sc), vehicle: sodium bicarbonate",8 of 8
same,T/C,"[2]; T/C endpoint: median survival time, dose: 0.08 mg/kg/injection, schedule: Q01DX017 (sc), vehicle: sodium bicarbonate",125 % of control
COC12C(COC(N)=O)C3=C(C(=O)C(C)=C(N)C3=O)N1CC1C2N1C (stereo unspecified),survivor count,"[1]; T/C endpoint: median survival time, dose: 32.0 mg/kg/injection, schedule: Q01DX009 (ip), vehicle: saline",10 of 10
same,T/C,[2]; [4],130 % of control
same,T/C,"[2]; T/C endpoint: median survival time, dose: 16.0 mg/kg/injection, schedule: Q01DX009 (ip), vehicle: saline",125 % of control
same,T/C,"[2]; T/C endpoint: median survival time, dose: 16.0 mg/kg/injection, schedule: Q01DX009 (sc), vehicle: saline",134 % of control
same,T/C,[2]; [5],130 % of control
CC[C@H]1CN2CCc3cc(OC)c(OC)cc3[C@@H]2C[C@@H]1C[C@H]1NCCc2cc(OC)c(OC)cc21,survivor count,"[1]; T/C endpoint: median survival time, dose: 14.0 mg/kg/injection, schedule: Q01DX009 (sc), vehicle: saline",8 of 8
same,survivor count,"[1]; T/C endpoint: median survival time, dose: 23.0 mg/kg/injection, schedule: Q01DX009 (sc), vehicle: saline",8 of 8
same,survivor count,"[1]; T/C endpoint: median survival time, dose: 39.0 mg/kg/injection, schedule: Q04DX003 (sc), vehicle: saline",8 of 8
same,T/C,"[2]; T/C endpoint: median survival time, dose: 3.0 mg/kg/injection, schedule: Q03HX003 (sc), vehicle: saline",146 % of control
same,T/C,"[2]; T/C endpoint: median survival time, dose: 5.0 mg/kg/injection, schedule: Q01DX009 (sc), vehicle: saline",139 % of control
same,T/C,"[2]; T/C endpoint: median survival time, dose: 5.0 mg/kg/injection, schedule: Q03HX003 (sc), vehicle: saline",132 % of control
same,T/C,"[2]; T/C endpoint: median survival time, dose: 8.4 mg/kg/injection, schedule: Q01DX009 (sc), vehicle: saline",125 % of control
same,T/C,"[2]; T/C endpoint: median survival time, dose: 14.0 mg/kg/injection, schedule: Q04DX003 (sc), vehicle: saline",128 % of control
same,T/C,"[2]; T/C endpoint: median survival time, dose: 23.0 mg/kg/injection, schedule: Q04DX003 (sc), vehicle: saline",142 % of control
same,T/C,"[2]; T/C endpoint: median survival time, dose: 32.0 mg/kg/injection, schedule: Q01DX001 (ip), vehicle: acid diluted with saline",138 % of control
same,T/C,"[2]; T/C endpoint: median survival time, dose: 48.0 mg/kg/injection, schedule: Q01DX001 (ip), vehicle: acid diluted with saline",134 % of control [7 of 10 alive]
NC(Cc1ccc(N(CCCl)CCCl)cc1)C(=O)O (stereo unspecified),survivor count,"[1]; T/C endpoint: median survival time, dose: 1.8 mg/kg/injection, schedule: Q01DX Z (sc), vehicle: saline",5 of 10 and 6 of 10
same,survivor count,[1]; [3],4 of 10
same,T/C,[2]; [4],133 % of control
same,T/C,"[2]; T/C endpoint: median survival time, dose: 14.0 mg/kg/injection, schedule: Q01DX Z (sc), vehicle: water",127 % of control
same,T/C,[2]; [5],133 % of control
same,T/C,"[2]; T/C endpoint: median survival time, dose: 23.3 mg/kg/injection, schedule: Q01DX Z (sc), vehicle: water",140 % of control
same,T/C,"[2]; T/C endpoint: median survival time, dose: 38.9 mg/kg/injection, schedule: Q01DX Z (sc), vehicle: water",127 % of control
same,T/C,"[2]; T/C endpoint: median survival time, dose: 65.0 mg/kg/injection, schedule: Q01DX Z (sc), vehicle: saline",133 % of control
